# In US20230279072A1, “REGULATORY T CELL EPITOPES” (EpiVax Inc., priority 2020, published 2023):
# Not every detail of the peptide structures is certain; ends, links or a residue may be inferred.
# Key:
# [1] = test system: NOD-scid IL-2Rγnull (NSG) mice transplanted with human PBMC; assay: Xenogenic GvHD model; format: in vivo, mouse; settings: 20 μg, Days 0, 2, 4, 7, 10, 15, 20, 25; relative to negative controls and positive control IVIG
# [2] = test system: CD4+ T cells in PBMCs from healthy donors; assay: Tetanus Toxoid Bystander Suppression Assay (TTBSA); format: cell-based, human
# [3] = test system: CD4+ effector memory T cells; assay: Suppression of Tetanus Toxoid stimulated CD4+ effector T cells in PBMC; format: cell-based, human
# Method: Previously harvested and frozen PBMC were thawed and suspended in conditioned chRPMI (3.3×10^6 cells/mL) by conventional means. Cells were stained with CFSE (Cat #: 65-0850-84, Affymetrix, Santa Clara, Calif.) and plated at 300,000 cells per well. Plates were incubated overnight (37° C. in 5% CO2). […] Previous titration experiments performed at EpiVax (EpiVax, Providence, R.I.) have established that stimulation with 0.5 μg/ml Tetanus Toxoid (TT) (Astarte Biologics, Bothell, Wash.) elicits a measurable CD4+ effector memory T cells response in PBMC drawn from healthy control donors (Rhode Island Blood Center, Providence, R.I.). Tetanus Toxoid stock (100 μg/mL) (Astarte Biologics, Bothell, Wash.) was diluted in conditioned chRPMI yielding a working concentration of 1 ug/mL. […] All plates were then incubated for six additional days. On assay day five, 100 μL of supernatant was removed from each well and replaced with freshly conditioned chRPMI.
# On assay day seven, cells were removed from incubation. Cells were labeled for live/dead discrimination, for surface markers CD127, CCR7, CD4, CD45RA, and CD25 and for intracellular FoxP3. […]
# Proliferation of CD4+/CD25-high (CD4^+/CD25^hi) T cells was estimated from the dilution of the CFSE stain (Cat #: 65-0850-84, Affymetrix, Santa Clara, Calif.) and % proliferation determined by the CFSE-low (CFSEL^lo) population (FIG. 8B).
smiles,measurement,setting,value
CC[C@H](C)[C@H](NC(C)=O)C(=O)N[C@@H](CC(C)C)C(=O)N[C@H](C(=O)N[C@H](C(=O)N[C@@H](Cc1c[nH]cn1)C(=O)N[C@@H](Cc1ccccc1)C(=O)N[C@H](C(=O)NCC(=O)N[C@@H](Cc1c[nH]cn1)C(=O)N[C@@H](CO)C(=O)N[C@@H](Cc1ccccc1)C(=O)N[C@H](C(=O)N[C@@H](Cc1ccc(O)cc1)C(=O)NCC(=O)N[C@@H](CCCCN)C(N)=O)[C@@H](C)CC)[C@@H](C)O)[C@@H](C)CC)[C@@H](C)O [SEQ ID NO: 1],survival (Kaplan-Meiers Survival Curve),[1],extended survival
same,"inhibition of TT mediated CD4+ T cell proliferation, free peptide vs HSA conjugate",[2],inhibited CD4+ T cell proliferation in a dose-dependent manner
same,inhibition of the CD4+ T memory response / T effector proliferation in the TTBSA,[2],inhibited T effector proliferation
same,activated (CD25 high) proliferating (CFSE low) CD4 T cells stimulated by Tetanus Toxoid,[3],actively suppressed
same,activated effector CD4+ T cells (CD4+/CD25-high/FoxP3-intermediate) reacting to Tetanus Toxoid,[3],strongly suppressed
